Data source: PubChem BioAssay AID652243 (Drosophila RNAi Screening Center, 2013)
The deposit covers about 24,000 reagents; below is a random part of those with a known target gene and a result. In the full data, 246 (1%) were called active. 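Plates not normalised; calls are printed but the firefly/Renilla ratio behind them is not deposited; fold cut for lowering reported inconsistently.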 Raw values are not corrected between plates. The record does not give: the amount of reagent.

- Test: 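Knock-downs that decrease or increase androgen receptor reporter signal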 (primary screen)
- System: Drosophila S2R+ cells
- Reagent: long dsRNA against Drosophila genes
- Time to read-out: 72 h (48 h, then 24 h hormone)
- Challenge: synthetic androgen R1881 at 10 nM for 24 h
- Detection: 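Firefly light from an androgen-responsive reporter and Renilla control light per well, raw and unnormalised, for each of two replicates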
- Direction: firefly reporter light: higher = more light from androgen-responsive reporter; Renilla control light: higher = more constitutive control signal (cell number, transfection)
- Active means: 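Across duplicate plates, a knock-down whose log firefly/Renilla ratio shifted a set fold down or up from the GFP/LacZ control mean was a hit; the downward cut appears as both 1.5 and 3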
- Calls: active = hit: reporter lowered or raised; inactive = no hit

{"predicted target": "CG31224", "dsRNA": "DRSC15272", "firefly reporter light, replicate 1": 1.81e5, "firefly reporter light, replicate 2": 3.02e5, "Renilla control light, replicate 1": 1.28e6, "Renilla control light, replicate 2": 2.46e6, "Call": "inactive"}
{"predicted target": "CG31224", "dsRNA": "DRSC16290", "firefly reporter light, replicate 1": 1.34e5, "firefly reporter light, replicate 2": 1.19e5, "Renilla control light, replicate 1": 6.00e5, "Renilla control light, replicate 2": 6.05e5, "Call": "inactive"}
{"predicted target": "CG9098", "dsRNA": "DRSC03136", "firefly reporter light, replicate 1": 4.23e5, "firefly reporter light, replicate 2": 4.23e5, "Renilla control light, replicate 1": 3.71e6, "Renilla control light, replicate 2": 2.64e6, "Call": "inactive"}
{"predicted target": "CG9098", "dsRNA": "DRSC22501", "firefly reporter light, replicate 1": 4.13e5, "firefly reporter light, replicate 2": 8.06e5, "Renilla control light, replicate 1": 1.52e6, "Renilla control light, replicate 2": 2.25e6, "Call": "inactive"}
{"predicted target": "CG9098", "dsRNA": "DRSC28828", "firefly reporter light, replicate 1": 3.32e5, "firefly reporter light, replicate 2": 2.99e5, "Renilla control light, replicate 1": 7.79e5, "Renilla control light, replicate 2": 9.60e5, "Call": "inactive"}
{"predicted target": "CG15641", "dsRNA": "DRSC19677", "firefly reporter light, replicate 1": 3.63e5, "firefly reporter light, replicate 2": 3.56e5, "Renilla control light, replicate 1": 3.43e6, "Renilla control light, replicate 2": 3.42e6, "Call": "inactive"}
{"predicted target": "CG18635", "dsRNA": "DRSC06780", "firefly reporter light, replicate 1": 3.56e5, "firefly reporter light, replicate 2": 5.69e5, "Renilla control light, replicate 1": 2.45e6, "Renilla control light, replicate 2": 3.51e6, "Call": "inactive"}
{"predicted target": "CG18635", "dsRNA": "DRSC25971", "firefly reporter light, replicate 1": 4.73e5, "firefly reporter light, replicate 2": 3.21e5, "Renilla control light, replicate 1": 1.10e6, "Renilla control light, replicate 2": 8.05e5, "Call": "inactive"}
{"predicted target": "Cpr72Ec (Cuticular protein 72Ec)", "dsRNA": "DRSC10449", "firefly reporter light, replicate 1": 1.05e5, "firefly reporter light, replicate 2": 46914, "Renilla control light, replicate 1": 4.92e5, "Renilla control light, replicate 2": 4.37e5, "Call": "inactive"}
{"predicted target": "CG14835", "dsRNA": "DRSC10205", "firefly reporter light, replicate 1": 1.10e5, "firefly reporter light, replicate 2": 1.04e5, "Renilla control light, replicate 1": 1.23e6, "Renilla control light, replicate 2": 1.64e6, "Call": "inactive"}
{"predicted target": "Root (Rootletin)", "dsRNA": "DRSC15972", "firefly reporter light, replicate 1": 1.75e5, "firefly reporter light, replicate 2": 2.17e5, "Renilla control light, replicate 1": 2.60e6, "Renilla control light, replicate 2": 2.29e6, "Call": "inactive"}
{"predicted target": "rept (reptin)", "dsRNA": "DRSC11388", "firefly reporter light, replicate 1": 2.54e5, "firefly reporter light, replicate 2": 2.22e5, "Renilla control light, replicate 1": 1.82e6, "Renilla control light, replicate 2": 1.65e6, "Call": "inactive"}
{"predicted target": "rept (reptin)", "dsRNA": "DRSC27183", "firefly reporter light, replicate 1": 4.43e5, "firefly reporter light, replicate 2": 3.39e5, "Renilla control light, replicate 1": 5.20e5, "Renilla control light, replicate 2": 4.18e5, "Call": "inactive"}
{"predicted target": "CAH9 (Carbonic anhydrase 9)", "dsRNA": "DRSC15963", "firefly reporter light, replicate 1": 2.26e5, "firefly reporter light, replicate 2": 2.53e5, "Renilla control light, replicate 1": 3.07e6, "Renilla control light, replicate 2": 3.74e6, "Call": "inactive"}
{"predicted target": "CAH9 (Carbonic anhydrase 9)", "dsRNA": "DRSC29677", "firefly reporter light, replicate 1": 4.20e5, "firefly reporter light, replicate 2": 6.68e5, "Renilla control light, replicate 1": 9.62e5, "Renilla control light, replicate 2": 9.62e5, "Call": "inactive"}
{"predicted target": "CG2291", "dsRNA": "DRSC06836", "firefly reporter light, replicate 1": 4.28e5, "firefly reporter light, replicate 2": 3.53e5, "Renilla control light, replicate 1": 1.82e6, "Renilla control light, replicate 2": 1.45e6, "Call": "inactive"}
{"predicted target": "ND-13A (NADH dehydrogenase (ubiquinone) 13 kDa A subunit)", "dsRNA": "DRSC03110", "firefly reporter light, replicate 1": 2.52e5, "firefly reporter light, replicate 2": 1.99e5, "Renilla control light, replicate 1": 1.45e6, "Renilla control light, replicate 2": 1.14e6, "Call": "inactive"}
{"predicted target": "ND-13A (NADH dehydrogenase (ubiquinone) 13 kDa A subunit)", "dsRNA": "DRSC29397", "firefly reporter light, replicate 1": 4.26e5, "firefly reporter light, replicate 2": 3.66e5, "Renilla control light, replicate 1": 9.29e5, "Renilla control light, replicate 2": 9.29e5, "Call": "inactive"}
{"predicted target": "CG13031", "dsRNA": "DRSC09911", "firefly reporter light, replicate 1": 1.92e5, "firefly reporter light, replicate 2": 2.58e5, "Renilla control light, replicate 1": 2.37e6, "Renilla control light, replicate 2": 2.15e6, "Call": "inactive"}
{"predicted target": "Ndae1 (Na[+]-driven anion exchanger 1)", "dsRNA": "DRSC00975", "firefly reporter light, replicate 1": 1.85e5, "firefly reporter light, replicate 2": 1.05e5, "Renilla control light, replicate 1": 1.53e5, "Renilla control light, replicate 2": 1.58e5, "Call": "inactive"}
{"predicted target": "Ndae1 (Na[+]-driven anion exchanger 1)", "dsRNA": "DRSC02770", "firefly reporter light, replicate 1": 8.53e5, "firefly reporter light, replicate 2": 1.42e6, "Renilla control light, replicate 1": 1.80e6, "Renilla control light, replicate 2": 2.88e6, "Call": "inactive"}
{"predicted target": "CG9331", "dsRNA": "DRSC03206", "firefly reporter light, replicate 1": 1.80e6, "firefly reporter light, replicate 2": 2.25e6, "Renilla control light, replicate 1": 2.00e6, "Renilla control light, replicate 2": 2.72e6, "Call": "inactive"}
{"predicted target": "CG9331", "dsRNA": "DRSC28815", "firefly reporter light, replicate 1": 3.91e5, "firefly reporter light, replicate 2": 3.69e5, "Renilla control light, replicate 1": 7.44e5, "Renilla control light, replicate 2": 1.23e6, "Call": "inactive"}
{"predicted target": "Oscillin", "dsRNA": "DRSC03001", "firefly reporter light, replicate 1": 8.27e5, "firefly reporter light, replicate 2": 7.37e5, "Renilla control light, replicate 1": 1.51e6, "Renilla control light, replicate 2": 1.53e6, "Call": "inactive"}
{"predicted target": "Oscillin", "dsRNA": "DRSC29150", "firefly reporter light, replicate 1": 6.12e5, "firefly reporter light, replicate 2": 6.67e5, "Renilla control light, replicate 1": 1.13e6, "Renilla control light, replicate 2": 1.40e6, "Call": "inactive"}
{"predicted target": "CG18598", "dsRNA": "DRSC15356", "firefly reporter light, replicate 1": 97099, "firefly reporter light, replicate 2": 1.39e5, "Renilla control light, replicate 1": 1.50e6, "Renilla control light, replicate 2": 1.79e6, "Call": "inactive"}
{"predicted target": "CG13784", "dsRNA": "DRSC00974", "firefly reporter light, replicate 1": 1.33e5, "firefly reporter light, replicate 2": 1.33e5, "Renilla control light, replicate 1": 1.63e5, "Renilla control light, replicate 2": 1.90e5, "Call": "inactive"}

Looked up above.
Result for ND-13A (NADH dehydrogenase (ubiquinone) 13 kDa A subunit) [DRSC03110] under “firefly reporter light, replicate 1”: 2.52e5
Under “Renilla control light, replicate 1”, rept (reptin) [DRSC27183] has 5.20e5
